Measurements: PMC7181697
Results are given in words; binding and its absence hold for the method and conditions named. For some of these results: In cells and extracts the contact can be indirect. Some binding calls cover weakened binding; strength is not graded here. For some of these results: Tags and fused reporters may be left off the sequences shown. Values belong to the binder of their own block, whether it stands above or below them.

By UniProt entry, the sequences of proteins in these tests, tags left out. Where a name states a change or a piece, a line headed by the entry shows the natural chain unless it says otherwise.
UniProt Q9UI95: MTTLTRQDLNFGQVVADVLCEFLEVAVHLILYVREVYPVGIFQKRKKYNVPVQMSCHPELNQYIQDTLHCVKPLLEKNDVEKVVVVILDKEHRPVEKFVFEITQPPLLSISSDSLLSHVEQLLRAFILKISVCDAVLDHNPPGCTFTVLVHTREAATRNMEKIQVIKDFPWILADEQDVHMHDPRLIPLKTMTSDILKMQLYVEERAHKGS
UniProt Q9UBT6: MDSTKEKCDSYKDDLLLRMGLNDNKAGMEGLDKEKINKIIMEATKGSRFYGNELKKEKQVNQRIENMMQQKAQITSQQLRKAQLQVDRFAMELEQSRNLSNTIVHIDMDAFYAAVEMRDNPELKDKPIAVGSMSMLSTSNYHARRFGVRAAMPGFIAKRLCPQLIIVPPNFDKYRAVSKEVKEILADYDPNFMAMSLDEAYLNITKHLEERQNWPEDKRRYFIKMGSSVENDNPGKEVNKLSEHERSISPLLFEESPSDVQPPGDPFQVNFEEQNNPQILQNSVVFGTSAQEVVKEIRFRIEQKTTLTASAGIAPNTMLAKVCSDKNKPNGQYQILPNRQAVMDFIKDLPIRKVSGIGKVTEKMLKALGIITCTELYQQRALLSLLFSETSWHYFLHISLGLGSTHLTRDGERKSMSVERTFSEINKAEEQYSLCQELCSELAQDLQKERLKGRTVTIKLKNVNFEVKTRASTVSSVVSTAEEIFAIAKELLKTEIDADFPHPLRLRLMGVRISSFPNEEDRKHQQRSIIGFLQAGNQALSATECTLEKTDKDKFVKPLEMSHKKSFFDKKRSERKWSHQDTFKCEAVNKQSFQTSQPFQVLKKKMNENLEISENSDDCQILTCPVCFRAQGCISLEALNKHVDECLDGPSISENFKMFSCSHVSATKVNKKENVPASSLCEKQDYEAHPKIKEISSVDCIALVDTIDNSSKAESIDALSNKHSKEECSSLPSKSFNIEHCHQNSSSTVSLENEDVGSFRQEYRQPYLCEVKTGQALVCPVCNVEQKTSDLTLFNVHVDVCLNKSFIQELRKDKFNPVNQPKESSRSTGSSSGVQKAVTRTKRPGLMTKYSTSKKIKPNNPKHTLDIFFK

Tests used:
[1] = target: REV7^K44A-SHLD3(1–82) (human) (UniProt Q9UI95+Q6ZNX1); test: ITC; ITC200, 25 °C, 20 mM Tris pH 8.0, 150 mM NaCl, 1% glycerol, 1 mM TCEP; one set of sites model; both purified
[2] = target: REV7^K44A-SHLD3(38–82) (human) (UniProt Q9UI95+Q6ZNX1); test: as above
[3] = target: REV7^WT-REV3(1871–2021) (human) (UniProt Q9UI95+O60673); test: as above
REV7^Y63A (human) = REV7^Y63A (human) (UniProt Q9UI95); test: SEC-MALS; co-expressed and co-purified REV7-SHLD3(1-82) samples; 100 μl at 5 mg/ml, WTC-015S5 column, 20 mM Tris-HCl pH 8.0, 150 mM NaCl, 1% glycerol, 1 mM TCEP, 0.01% NaN3; both purified
REV7^R124A (human) = REV7^R124A (human) (UniProt Q9UI95); test: as above
REV7^K190A (human) = REV7^K190A (human) (UniProt Q9UI95); test: as above
REV7^K44A (human) = REV7^K44A (human) (UniProt Q9UI95); test: as above
[4] = target: REV7 (full length, wild type) (human) (UniProt Q9UI95); test: as above
REV7^W171A (human) = REV7^W171A (human) (UniProt Q9UI95); test: as above
REV7^E35A (human) [5] = target: REV7^E35A (human) (UniProt Q9UI95); test: as above
REV7^K129A (human) = REV7^K129A (human) (UniProt Q9UI95); test: as above
REV7^E35A (human) [6] = target: REV7^E35A (human) (UniProt Q9UI95); test: SEC; Superdex 200 Increase 10/300 GL, 20 mM Tris/HCl pH 8.0, 150 mM NaCl, 1% glycerol, 1 mM TCEP; proteins mixed and incubated 10 min on ice; 0.5 ml fractions on SDS-PAGE, Coomassie; both purified
[7] = target: REV7 (full length, wild type) (human) (UniProt Q9UI95); test: crystal structure; REV7, SHLD3(1-64) and SHLD2(1-52) co-expressed and co-purified; sitting drop, 0.02 M magnesium chloride hexahydrate, 0.1 M HEPES 7.5, 22% w/v poly(acrylic acid sodium salt) 5100, 20 °C, 5 mg/ml; both purified
S-tag-HA-SHLD3 (human) = target: T1, S-tag-HA-SHLD3 (human) (UniProt Q6ZNX1); test: pull-down; S-tag-HA-SHLD3 and GFP-REV3(1847-2021) co-expressed in HEK293T cells; DMSO or 1 μM doxorubicin for 24 h; NP-40 lysis buffer; S-protein agarose, 4 °C, 3 h; immunoblot
T1 sequence: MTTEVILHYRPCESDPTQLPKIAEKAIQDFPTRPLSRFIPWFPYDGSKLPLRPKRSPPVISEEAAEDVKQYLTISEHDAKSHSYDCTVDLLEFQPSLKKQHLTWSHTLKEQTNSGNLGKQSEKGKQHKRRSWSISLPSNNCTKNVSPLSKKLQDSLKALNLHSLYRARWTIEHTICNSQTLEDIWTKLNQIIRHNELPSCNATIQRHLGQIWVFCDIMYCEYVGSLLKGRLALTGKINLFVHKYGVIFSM

Flag-REV7^Y63A (human) = Flag-REV7^Y63A (human) (UniProt Q9UI95); test: co-IP; Flag-REV7 mutants, S-tag-HA-SHLD3 and GFP-REV3(1042-1251 + 1847-2021) co-expressed in HEK293FT cells; DMSO or 1 μM doxorubicin for 24 h; NP-40 lysis buffer; anti-Flag agarose, 4 °C, 4 h; immunoblot
Flag-REV7^W171A (human) = Flag-REV7^W171A (human) (UniProt Q9UI95); test: as above
SHLD3(1-64) (human) = target: T2, SHLD3(1-64) (human) (UniProt Q6ZNX1); test: crystal structure; REV7, SHLD3(1-64) and SHLD2(1-52) co-expressed and co-purified; sitting drop, 0.02 M magnesium chloride hexahydrate, 0.1 M HEPES 7.5, 22% w/v poly(acrylic acid sodium salt) 5100, 20 °C, 5 mg/ml; both purified
T2 sequence: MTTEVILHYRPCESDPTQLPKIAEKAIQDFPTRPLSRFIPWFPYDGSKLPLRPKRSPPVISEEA

B4: GFP-tagged REV3(1847–2021) (domain or fragment, UniProt O60673 1847-2021)
chain: MLTPTPDSSPRSTSSPSQSKNGSFTPRTANILKPLMSPPSREEIMATLLDHDLSETIYQEPFCSNPSDVPEKPREIGGRLLMVETRLANDLAEFEGDFSLEGLRLWKTAFSAMTQNPRPGSPLRSGQGVVNKGSSNSPKMVEDKKIVIMPCKCAPSRQLVQVWLQAKEEYERSKK
binding (S-tag-HA-SHLD3 (human)): binds

B5: S-tag-HA-SHLD3 (protein, UniProt Q6ZNX1 1-250)
chain: MTTEVILHYRPCESDPTQLPKIAEKAIQDFPTRPLSRFIPWFPYDGSKLPLRPKRSPPVISEEAAEDVKQYLTISEHDAKSHSYDCTVDLLEFQPSLKKQHLTWSHTLKEQTNSGNLGKQSEKGKQHKRRSWSISLPSNNCTKNVSPLSKKLQDSLKALNLHSLYRARWTIEHTICNSQTLEDIWTKLNQIIRHNELPSCNATIQRHLGQIWVFCDIMYCEYVGSLLKGRLALTGKINLFVHKYGVIFSM
binding (Flag-REV7^Y63A (human)): binds
binding (Flag-REV7^W171A (human)): binds

B6: SHLD2(1-52) (domain or fragment, UniProt Q86V20 1-52)
chain: MSGGSQVHIFWGAPIAPLKITVSEDTASLMSVADPWKKIQLLYSQHSLYLKD
binding [7]: binds
binding (SHLD3(1-64) (human)): binds

Now from value to binder:

binding [1]: no binding
binding [2]: no binding
binding [3]: binds
B1: cREV1 CTD (chimeric REV1 CTD: POL κ RIR fused to the N-terminus of REV1 CTD) (protein, UniProt Q9UBT6 562-577; Q9UBZ9 1140-1251)
chain: SHKKSFFDKKRSERKWGLSSLQSDPAGCVRPPAPNLAGAVEFNDVKTLLREWITTISDPMEEDILQVVKYCTDLIEEKDLEKLDLVIKYMKRLMQQSVESVWNMAFDFILDNVQVVLQQTYGSTLKVT

binding (REV7^Y63A (human)): binds
binding (REV7^R124A (human)): binds
binding (REV7^K190A (human)): binds
binding (REV7^K44A (human)): binds
binding [4]: binds
binding (REV7^W171A (human)): binds
binding (REV7^E35A (human) [5]): binds
binding (REV7^K129A (human)): binds
binding (REV7^E35A (human) [6]): binds
B2: SHLD3(1–82), untagged, co-expressed with REV7 (domain or fragment, UniProt Q6ZNX1 1-82)
chain: MTTEVILHYRPCESDPTQLPKIAEKAIQDFPTRPLSRFIPWFPYDGSKLPLRPKRSPPVISEEAAEDVKQYLTISEHDAKSH

binding [7]: binds
B3: SHLD3(1-64) (domain or fragment, UniProt Q6ZNX1 1-64)
chain: MTTEVILHYRPCESDPTQLPKIAEKAIQDFPTRPLSRFIPWFPYDGSKLPLRPKRSPPVISEEA

binding (Flag-REV7^W171A (human)): binds
B7: GFP-tagged REV3(1042–1251 + 1847–2021) (domain or fragment, UniProt O60673 1042-1251; O60673 1847-2021)
chain: PKKSHRRKSKHKSAKKKTGKQQRTNNENIKRTLSFRKKRSHAILSPPSPSYNAETEDCDLNYSDVMSKLGFLSERSTSPINSSPPRCWSPTDPRAEEIMAAAEKEAMLFKGPNVYKKTVNSRIGKTSRARAQIKKSKAKLANPSIVTKKRNKRNQTNKLVDDGKKKPRAKQKTNEKGTSRKHTTLKDEKIKSQSGAEVKFVLKHQNVSEFMLTPTPDSSPRSTSSPSQSKNGSFTPRTANILKPLMSPPSREEIMATLLDHDLSETIYQEPFCSNPSDVPEKPREIGGRLLMVETRLANDLAEFEGDFSLEGLRLWKTAFSAMTQNPRPGSPLRSGQGVVNKGSSNSPKMVEDKKIVIMPCKCAPSRQLVQVWLQAKEEYERSKK
